Measured values published in publication PMC7663799, “Endocytosis and Trafficking of Heparan Sulfate Proteoglycans in Triple-Negative Breast Cancer Cells Unraveled with a Polycationic Peptide” (International Journal of Molecular Sciences, 2020).

How the values were obtained:
Assay type in all cases: cell-based, human
[1] = tested on: heparan sulfate (10E4 epitope); assay: Colocalization of NT4 with anti-HS antibody clone 10E4, confocal immunofluorescence; details: MDA-MB-231
caveolin = assay: Colocalization of NT4 with anti-caveolin antibody; details: MDA-MB-231
clathrin = assay: Colocalization of NT4 with anti-clathrin antibody; details: MDA-MB-231, 30 min incubation
[2] = tested on: macropinocytosis in MDA-MB-231 cells; assay: Colocalization of NT4 with rhodamine-labelled dextran (macropinocytosis); details: n = 10
EEA1 = assay: Colocalization of NT4 with EEA1; details: MDA-MB-231
Rab7 = assay: Colocalization of NT4 with Rab7; details: MDA-MB-231
Rab11 = assay: Colocalization of NT4 with Rab11; details: MDA-MB-231, 1 h incubation

In the case of (pyELYENKPRRPYIL)4K2K-beta-Ala [NT4], the “mean Pearson correlation of NT4 with anti-HS antibody 10E4” value ([1]; three experiments and three randomly taken fields) is reported as 0.6561 (±0.03), the “overlap rate of NT4 with anti-HS antibody 10E4” value ([1]; ±4.41%, n = 9, three experiments, three random fields) is reported as 71% and the “colocalization of NT4 with caveolin” value (caveolin; after 1 h incubation at 37 °C) is reported as “below 30%”. The “Pearson coefficient of NT4 with caveolin” value (caveolin; first 30 min at 37 °C, n = 12) was 0.4976 (±0.08), the “colocalization rate of NT4 with caveolin” value (caveolin; first 30 min at 37 °C, ±12.03%, n = 12) was 38% and the “colocalization rate of NT4 with clathrin” value (clathrin; n = 9) was 28%. The “Pearson coefficient of NT4 with clathrin” value (clathrin; ±0.1, n = 9) was 0.4051, the “colocalization of NT4 with dextran” value ([2]; 5 mg/mL Rhodamine B isothiocyanate-Dextran, ±8.31%) was 26.44% and the “Pearson coefficient of NT4 with dextran” value ([2]; rhodamine-labelled dextran) was 0.5339 (±0.11). For the same substance, the “Pearson coefficient of NT4 with EEA1” value (EEA1; n = 14, SD ± 0.0050) was 0.4801, the “colocalization rate of NT4 with EEA1” value (EEA1; n = 14, SD ± 3) was 33% and the “Pearson coefficient of NT4 with Rab7” value (Rab7; after 15 min at 37 °C, n = 10, SD ± 0.03) was 0.33. The “colocalization of NT4 with Rab7” value (Rab7; after 15 min at 37 °C, n = 10, SD ± 4) was 19%, the “Pearson coefficient of NT4 with Rab7” value (Rab7; after 1 h at 37 °C, n = 10, SD ± 0.07) was 0.49 and the “colocalization of NT4 with Rab7” value (Rab7; after 1 h at 37 °C, n = 10, SD ± 11) was 42%. For the same substance, the “Pearson coefficient of NT4 with Rab11” value (Rab11; n = 6, SD ± 0.039) was 0.38 and the “colocalization rate of NT4 with Rab11” value (Rab11; n = 6, SD ± 5.89) was 24%.
